Test results taken from article PMC8683389, “The monofunctional CO dehydrogenase CooS is essential for growth of Thermoanaerobacter kivui on carbon monoxide” (Extremophiles, 2021).
Results are given in words; binding and its absence hold for the method and conditions named. Some results given as binding are weak or reduced against the parent protein; the word gives no strength. Where a sequence is shown, tags or fusion partners need not be part of it.

T1: His-AcsA, His-tagged CO dehydrogenase subunit AcsA of the CODH/ACS complex of Thermoanaerobacter kivui (Thermoanaerobacter kivui)
T1 sequence: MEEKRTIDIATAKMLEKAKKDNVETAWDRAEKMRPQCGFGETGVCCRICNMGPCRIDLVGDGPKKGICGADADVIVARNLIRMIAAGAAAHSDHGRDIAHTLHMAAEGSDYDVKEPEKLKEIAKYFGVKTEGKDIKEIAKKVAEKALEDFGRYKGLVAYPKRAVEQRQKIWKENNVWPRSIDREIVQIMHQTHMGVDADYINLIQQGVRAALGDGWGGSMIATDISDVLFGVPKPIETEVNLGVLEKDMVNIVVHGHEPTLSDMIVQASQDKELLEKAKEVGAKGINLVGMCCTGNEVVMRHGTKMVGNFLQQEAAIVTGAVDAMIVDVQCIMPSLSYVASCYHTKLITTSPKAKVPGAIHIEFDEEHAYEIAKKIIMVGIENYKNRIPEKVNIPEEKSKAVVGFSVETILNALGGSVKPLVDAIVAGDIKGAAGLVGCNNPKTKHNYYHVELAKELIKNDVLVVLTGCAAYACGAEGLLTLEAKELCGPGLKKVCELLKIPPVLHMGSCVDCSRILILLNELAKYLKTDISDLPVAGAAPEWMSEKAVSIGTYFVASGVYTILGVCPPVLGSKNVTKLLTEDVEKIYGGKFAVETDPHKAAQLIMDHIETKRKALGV


Columns and labels:
[1] = target: T1, His-AcsA, His-tagged CO dehydrogenase subunit AcsA of the CODH/ACS complex of Thermoanaerobacter kivui (Thermoanaerobacter kivui); test: co-purification (Ni2+-NTA affinity chromatography, then SEC), SDS-PAGE; His-tagged protein produced in T. kivui, crude extract on Ni2+-NTA resin, then Superdex 200; strictly anoxic, room temperature, buffers A and B (50 mM Tris/HCl, 150 mM NaCl, 20 mM MgSO4, 20% glycerol, pH 7.5); co-purified protein seen on a Coomassie-stained 12% SDS gel
[2] = target: His-AcsAB complex of Thermoanaerobacter kivui (Thermoanaerobacter kivui | Thermoanaerobacter kivui (endogenous in T. kivui)); test: SEC; analytical size exclusion on a calibrated Superdex 200 column, buffer B, size standards 43-440 kDa; oligomeric state of the purified complex; both purified

binding [1] | binding [2] | Binder
binds |  | AcsB, acetyl-CoA synthase of the CO dehydrogenase/acetyl CoA synthase complex of Thermoanaerobacter kivui (enzyme, UniProt A0A097ATJ0 1-708) MNLVDIIFTGANQALEAAKATLTAAIEKKGEDAKVVFPDTAYSLPTIYAATGQKIGTLKELAGAAPIIESLISEERNLDTALKAGLATAVCAEVIEACKYATEEKPYTEPCIGFVPDPIIRSLGVPLVTGDIPGVAVVIGEAPSAEIAAKIIKNYQNKGLLTFLVGKVIDQAIEGNVKMGLELRVVPLGYDVTSVIHVVTVALRAALIFGGVQPGDLGSLLTYTKERVPAFVNALGPLSELVVAAGAGAIALGFPVITDQDVPEIPGALISQKDYDKIGATSLEARGIKIKITEIPIPVGFAAAFEGERIRKGDMFVEFGGGRTPAWEVVRTLDMSEIEDHKIEVIGPDIDTLGPEGGKMPLGILVDVAGKKMQQDFEPVLERRIHYFLNYMEGVMHLGQRDIIWVRIGKNAYQAGLRLHHFGEVLYAKMLDEFGSVVDKVQVTIITDPAKVEEMGKTIAKPRYQARDERLAGLSDESVDVFYSCLMCQSFAPAHVCIVTPERLGLCGAVSWLDAKATKEINPTGPCQPIEKGECLDPVKGIFESCNKAVEELSHGAIKEVTLYSLMENPMTSCGCFECICAIMPEANGVIIVNREYGGMTPLGMTFGELASTTGGGNQTPGFMGHGRQYISSKKFIAAEGGLKRVVWMPKELKDAVRDKINETAKELFGIDNFADMIADETVGTAPDAVVEFLNNVGHPALTMDPLL
 | no binding | His-AcsAB complex of Thermoanaerobacter kivui (complex, UniProt A0A097ATM9 1-618; A0A097ATJ0 1-708) chain 1: MEEKRTIDIATAKMLEKAKKDNVETAWDRAEKMRPQCGFGETGVCCRICNMGPCRIDLVGDGPKKGICGADADVIVARNLIRMIAAGAAAHSDHGRDIAHTLHMAAEGSDYDVKEPEKLKEIAKYFGVKTEGKDIKEIAKKVAEKALEDFGRYKGLVAYPKRAVEQRQKIWKENNVWPRSIDREIVQIMHQTHMGVDADYINLIQQGVRAALGDGWGGSMIATDISDVLFGVPKPIETEVNLGVLEKDMVNIVVHGHEPTLSDMIVQASQDKELLEKAKEVGAKGINLVGMCCTGNEVVMRHGTKMVGNFLQQEAAIVTGAVDAMIVDVQCIMPSLSYVASCYHTKLITTSPKAKVPGAIHIEFDEEHAYEIAKKIIMVGIENYKNRIPEKVNIPEEKSKAVVGFSVETILNALGGSVKPLVDAIVAGDIKGAAGLVGCNNPKTKHNYYHVELAKELIKNDVLVVLTGCAAYACGAEGLLTLEAKELCGPGLKKVCELLKIPPVLHMGSCVDCSRILILLNELAKYLKTDISDLPVAGAAPEWMSEKAVSIGTYFVASGVYTILGVCPPVLGSKNVTKLLTEDVEKIYGGKFAVETDPHKAAQLIMDHIETKRKALGV chain 2: MNLVDIIFTGANQALEAAKATLTAAIEKKGEDAKVVFPDTAYSLPTIYAATGQKIGTLKELAGAAPIIESLISEERNLDTALKAGLATAVCAEVIEACKYATEEKPYTEPCIGFVPDPIIRSLGVPLVTGDIPGVAVVIGEAPSAEIAAKIIKNYQNKGLLTFLVGKVIDQAIEGNVKMGLELRVVPLGYDVTSVIHVVTVALRAALIFGGVQPGDLGSLLTYTKERVPAFVNALGPLSELVVAAGAGAIALGFPVITDQDVPEIPGALISQKDYDKIGATSLEARGIKIKITEIPIPVGFAAAFEGERIRKGDMFVEFGGGRTPAWEVVRTLDMSEIEDHKIEVIGPDIDTLGPEGGKMPLGILVDVAGKKMQQDFEPVLERRIHYFLNYMEGVMHLGQRDIIWVRIGKNAYQAGLRLHHFGEVLYAKMLDEFGSVVDKVQVTIITDPAKVEEMGKTIAKPRYQARDERLAGLSDESVDVFYSCLMCQSFAPAHVCIVTPERLGLCGAVSWLDAKATKEINPTGPCQPIEKGECLDPVKGIFESCNKAVEELSHGAIKEVTLYSLMENPMTSCGCFECICAIMPEANGVIIVNREYGGMTPLGMTFGELASTTGGGNQTPGFMGHGRQYISSKKFIAAEGGLKRVVWMPKELKDAVRDKINETAKELFGIDNFADMIADETVGTAPDAVVEFLNNVGHPALTMDPLL
